No constants are given. Whether binding was seen depends on the method and setting. Binding seen in cells or lysates may run through a third protein. Some binding calls cover weakened binding; strength is not graded here. Where a sequence is shown, tags or fusion partners need not be part of it.
Tests used:
myc-TIN2L (human) [1] = biological target: T1, myc-TIN2L (human) (UniProt Q9BSI4); test: co-IP; anti-c-myc-agarose beads pull down myc-TIN2 from CHAPS lysate of TPP1/POT1/TERT cells transfected with myc-TIN2; 2 h at 4°C, 4 washes with CHAPS buffer; FLAG Western blot
T1 sequence: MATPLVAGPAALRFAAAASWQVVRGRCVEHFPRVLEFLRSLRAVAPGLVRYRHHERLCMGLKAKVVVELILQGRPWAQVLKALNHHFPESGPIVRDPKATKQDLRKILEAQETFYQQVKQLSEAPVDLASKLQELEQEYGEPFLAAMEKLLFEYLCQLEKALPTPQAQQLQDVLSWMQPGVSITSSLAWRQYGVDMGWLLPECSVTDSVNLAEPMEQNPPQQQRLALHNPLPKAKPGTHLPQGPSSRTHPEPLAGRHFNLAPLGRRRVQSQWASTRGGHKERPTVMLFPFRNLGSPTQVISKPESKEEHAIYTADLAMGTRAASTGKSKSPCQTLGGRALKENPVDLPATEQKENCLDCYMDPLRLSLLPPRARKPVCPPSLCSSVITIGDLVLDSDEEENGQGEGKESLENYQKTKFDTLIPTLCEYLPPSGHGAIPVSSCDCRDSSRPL

myc-TIN2S (human) [2] = biological target: T2, myc-TIN2S (human) (UniProt Q9BSI4); test: as above
T2 sequence: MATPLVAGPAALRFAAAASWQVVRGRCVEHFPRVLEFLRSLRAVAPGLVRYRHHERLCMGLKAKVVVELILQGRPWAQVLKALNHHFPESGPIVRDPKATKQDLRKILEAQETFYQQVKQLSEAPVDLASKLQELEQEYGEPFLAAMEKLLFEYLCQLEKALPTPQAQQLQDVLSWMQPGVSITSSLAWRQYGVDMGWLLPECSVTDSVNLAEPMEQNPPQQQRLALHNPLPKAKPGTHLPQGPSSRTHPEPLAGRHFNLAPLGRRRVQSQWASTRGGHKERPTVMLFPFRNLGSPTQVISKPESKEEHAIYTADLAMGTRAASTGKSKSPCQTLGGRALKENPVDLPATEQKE

myc-TIN2M K280E (human) = biological target: T3, myc-TIN2M K280E (human) (UniProt Q9BSI4); test: as above
T3 sequence: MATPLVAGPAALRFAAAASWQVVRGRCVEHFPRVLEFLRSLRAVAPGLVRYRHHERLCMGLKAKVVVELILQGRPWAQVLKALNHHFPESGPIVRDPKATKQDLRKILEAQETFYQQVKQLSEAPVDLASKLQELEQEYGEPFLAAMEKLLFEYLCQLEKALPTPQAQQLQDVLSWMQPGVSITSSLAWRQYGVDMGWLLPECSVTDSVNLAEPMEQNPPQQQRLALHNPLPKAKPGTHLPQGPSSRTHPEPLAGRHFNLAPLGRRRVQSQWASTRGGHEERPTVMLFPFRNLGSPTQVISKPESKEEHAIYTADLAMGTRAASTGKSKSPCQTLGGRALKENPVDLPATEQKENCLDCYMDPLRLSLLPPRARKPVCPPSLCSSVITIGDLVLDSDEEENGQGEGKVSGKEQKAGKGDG

myc-TIN2S K280E (human) = biological target: T4, myc-TIN2S K280E (human) (UniProt Q9BSI4); test: as above
T4 sequence: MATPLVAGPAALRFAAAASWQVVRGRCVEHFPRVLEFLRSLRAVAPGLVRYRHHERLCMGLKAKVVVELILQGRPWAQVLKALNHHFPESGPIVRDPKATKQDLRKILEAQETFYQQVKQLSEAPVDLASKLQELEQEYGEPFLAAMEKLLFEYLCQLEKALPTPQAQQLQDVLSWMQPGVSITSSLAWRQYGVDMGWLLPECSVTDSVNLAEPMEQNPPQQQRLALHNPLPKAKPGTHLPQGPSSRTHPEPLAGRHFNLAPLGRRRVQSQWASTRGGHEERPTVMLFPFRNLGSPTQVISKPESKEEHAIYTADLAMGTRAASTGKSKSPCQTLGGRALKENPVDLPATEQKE

myc-TIN2L K280E (human) = biological target: T5, myc-TIN2L K280E (human) (UniProt Q9BSI4); test: as above
T5 sequence: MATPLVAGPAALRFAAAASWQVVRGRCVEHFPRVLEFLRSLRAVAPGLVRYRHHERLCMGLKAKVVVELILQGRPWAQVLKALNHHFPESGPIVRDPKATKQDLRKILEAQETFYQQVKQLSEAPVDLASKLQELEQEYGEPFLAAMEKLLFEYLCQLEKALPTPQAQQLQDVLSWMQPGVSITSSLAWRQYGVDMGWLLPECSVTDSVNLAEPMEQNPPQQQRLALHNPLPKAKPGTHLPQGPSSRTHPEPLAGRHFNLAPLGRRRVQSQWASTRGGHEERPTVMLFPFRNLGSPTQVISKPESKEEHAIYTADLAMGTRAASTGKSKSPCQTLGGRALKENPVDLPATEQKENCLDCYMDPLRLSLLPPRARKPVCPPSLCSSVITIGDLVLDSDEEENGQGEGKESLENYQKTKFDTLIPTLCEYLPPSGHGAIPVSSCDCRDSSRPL

myc-TIN2M (human) [3] = biological target: T6, myc-TIN2M (human) (UniProt Q9BSI4); test: as above
T6 sequence: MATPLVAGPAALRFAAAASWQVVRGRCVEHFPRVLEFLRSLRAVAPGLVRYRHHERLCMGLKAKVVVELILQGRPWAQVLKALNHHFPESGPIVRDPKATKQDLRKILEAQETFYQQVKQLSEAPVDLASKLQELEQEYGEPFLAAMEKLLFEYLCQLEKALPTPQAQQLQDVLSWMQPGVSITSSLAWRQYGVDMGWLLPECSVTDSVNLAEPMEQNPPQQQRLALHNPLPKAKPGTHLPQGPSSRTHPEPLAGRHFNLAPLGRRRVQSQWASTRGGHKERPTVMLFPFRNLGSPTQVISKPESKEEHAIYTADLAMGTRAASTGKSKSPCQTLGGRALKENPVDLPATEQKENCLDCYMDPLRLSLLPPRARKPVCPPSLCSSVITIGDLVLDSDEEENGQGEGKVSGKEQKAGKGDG

myc-TIN2L (human) [4] = biological target: T1, myc-TIN2L (human); test: co-IP; anti-c-myc-agarose beads pull down myc-TIN2 from CHAPS lysate of TPP1^TEL/POT1/TERT cells transfected with myc-TIN2; 2 h at 4°C, 4 washes with CHAPS buffer; FLAG Western blot
myc-TIN2S (human) [5] = biological target: T2, myc-TIN2S (human); test: as above
myc-TIN2M (human) [6] = biological target: T6, myc-TIN2M (human); test: as above
FLAG-POT1 (human) = biological target: T7, FLAG-POT1 (human) (UniProt Q9NUX5); test: co-IP; reciprocal pulldown of FLAG-TPP1/POT1/TERT with anti-FLAG M2 affinity gel from CHAPS lysate; all three FLAG proteins captured at once; data not shown
T7 sequence: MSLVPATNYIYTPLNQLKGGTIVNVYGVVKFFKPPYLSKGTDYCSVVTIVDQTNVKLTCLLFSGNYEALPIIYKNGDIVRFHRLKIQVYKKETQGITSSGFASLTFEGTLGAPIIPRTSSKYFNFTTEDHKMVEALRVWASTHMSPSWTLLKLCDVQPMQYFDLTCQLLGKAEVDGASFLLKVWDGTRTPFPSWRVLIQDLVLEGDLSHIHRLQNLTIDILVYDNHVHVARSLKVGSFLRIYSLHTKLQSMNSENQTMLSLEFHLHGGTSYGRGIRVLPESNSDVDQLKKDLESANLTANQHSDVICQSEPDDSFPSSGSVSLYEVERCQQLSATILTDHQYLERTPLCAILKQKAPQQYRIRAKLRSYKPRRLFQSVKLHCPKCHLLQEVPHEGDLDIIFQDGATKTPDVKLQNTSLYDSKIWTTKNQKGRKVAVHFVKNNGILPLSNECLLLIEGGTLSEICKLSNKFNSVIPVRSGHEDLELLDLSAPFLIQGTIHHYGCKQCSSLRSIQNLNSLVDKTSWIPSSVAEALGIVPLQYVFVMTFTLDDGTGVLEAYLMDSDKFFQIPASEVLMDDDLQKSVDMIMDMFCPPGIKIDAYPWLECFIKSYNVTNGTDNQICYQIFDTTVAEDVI

Measured: binding

B1: FLAG-POT1 (protein, UniProt Q9NUX5 1-634)
chain: MSLVPATNYIYTPLNQLKGGTIVNVYGVVKFFKPPYLSKGTDYCSVVTIVDQTNVKLTCLLFSGNYEALPIIYKNGDIVRFHRLKIQVYKKETQGITSSGFASLTFEGTLGAPIIPRTSSKYFNFTTEDHKMVEALRVWASTHMSPSWTLLKLCDVQPMQYFDLTCQLLGKAEVDGASFLLKVWDGTRTPFPSWRVLIQDLVLEGDLSHIHRLQNLTIDILVYDNHVHVARSLKVGSFLRIYSLHTKLQSMNSENQTMLSLEFHLHGGTSYGRGIRVLPESNSDVDQLKKDLESANLTANQHSDVICQSEPDDSFPSSGSVSLYEVERCQQLSATILTDHQYLERTPLCAILKQKAPQQYRIRAKLRSYKPRRLFQSVKLHCPKCHLLQEVPHEGDLDIIFQDGATKTPDVKLQNTSLYDSKIWTTKNQKGRKVAVHFVKNNGILPLSNECLLLIEGGTLSEICKLSNKFNSVIPVRSGHEDLELLDLSAPFLIQGTIHHYGCKQCSSLRSIQNLNSLVDKTSWIPSSVAEALGIVPLQYVFVMTFTLDDGTGVLEAYLMDSDKFFQIPASEVLMDDDLQKSVDMIMDMFCPPGIKIDAYPWLECFIKSYNVTNGTDNQICYQIFDTTVAEDVI
binds: myc-TIN2L (human) [1] | myc-TIN2S (human) [2] | myc-TIN2M K280E (human) | myc-TIN2S K280E (human) | myc-TIN2L K280E (human) | myc-TIN2M (human) [3] | myc-TIN2L (human) [4] | myc-TIN2S (human) [5] | myc-TIN2M (human) [6]

B2: myc-TIN2S (protein, UniProt Q9BSI4-1 1-354)
chain: MATPLVAGPAALRFAAAASWQVVRGRCVEHFPRVLEFLRSLRAVAPGLVRYRHHERLCMGLKAKVVVELILQGRPWAQVLKALNHHFPESGPIVRDPKATKQDLRKILEAQETFYQQVKQLSEAPVDLASKLQELEQEYGEPFLAAMEKLLFEYLCQLEKALPTPQAQQLQDVLSWMQPGVSITSSLAWRQYGVDMGWLLPECSVTDSVNLAEPMEQNPPQQQRLALHNPLPKAKPGTHLPQGPSSRTHPEPLAGRHFNLAPLGRRRVQSQWASTRGGHKERPTVMLFPFRNLGSPTQVISKPESKEEHAIYTADLAMGTRAASTGKSKSPCQTLGGRALKENPVDLPATEQKE
binds: FLAG-POT1 (human)

B3: myc-TIN2M (protein, UniProt Q9BSI4 1-407)
chain: MATPLVAGPAALRFAAAASWQVVRGRCVEHFPRVLEFLRSLRAVAPGLVRYRHHERLCMGLKAKVVVELILQGRPWAQVLKALNHHFPESGPIVRDPKATKQDLRKILEAQETFYQQVKQLSEAPVDLASKLQELEQEYGEPFLAAMEKLLFEYLCQLEKALPTPQAQQLQDVLSWMQPGVSITSSLAWRQYGVDMGWLLPECSVTDSVNLAEPMEQNPPQQQRLALHNPLPKAKPGTHLPQGPSSRTHPEPLAGRHFNLAPLGRRRVQSQWASTRGGHKERPTVMLFPFRNLGSPTQVISKPESKEEHAIYTADLAMGTRAASTGKSKSPCQTLGGRALKENPVDLPATEQKENCLDCYMDPLRLSLLPPRARKPVCPPSLCSSVITIGDLVLDSDEEENGQGEGKVSGKEQKAGKGDG
binds: FLAG-POT1 (human)

B4: myc-TIN2L (protein, UniProt Q9BSI4-1 1-451)
chain: MATPLVAGPAALRFAAAASWQVVRGRCVEHFPRVLEFLRSLRAVAPGLVRYRHHERLCMGLKAKVVVELILQGRPWAQVLKALNHHFPESGPIVRDPKATKQDLRKILEAQETFYQQVKQLSEAPVDLASKLQELEQEYGEPFLAAMEKLLFEYLCQLEKALPTPQAQQLQDVLSWMQPGVSITSSLAWRQYGVDMGWLLPECSVTDSVNLAEPMEQNPPQQQRLALHNPLPKAKPGTHLPQGPSSRTHPEPLAGRHFNLAPLGRRRVQSQWASTRGGHKERPTVMLFPFRNLGSPTQVISKPESKEEHAIYTADLAMGTRAASTGKSKSPCQTLGGRALKENPVDLPATEQKENCLDCYMDPLRLSLLPPRARKPVCPPSLCSSVITIGDLVLDSDEEENGQGEGKESLENYQKTKFDTLIPTLCEYLPPSGHGAIPVSSCDCRDSSRPL
binds: FLAG-POT1 (human)

Reference: paper PMC6791651
